The assay deals with HA-VP35 (EBOV VP35 with an N-terminal HA epitope tag and flexible linker) (Ebola virus Zaire (EBOV)) (UniProt Q05127). Description: co-IP.

Protein sequences, listed by entry. Tags and fused reporters are not part of them.
UniProt Q05127: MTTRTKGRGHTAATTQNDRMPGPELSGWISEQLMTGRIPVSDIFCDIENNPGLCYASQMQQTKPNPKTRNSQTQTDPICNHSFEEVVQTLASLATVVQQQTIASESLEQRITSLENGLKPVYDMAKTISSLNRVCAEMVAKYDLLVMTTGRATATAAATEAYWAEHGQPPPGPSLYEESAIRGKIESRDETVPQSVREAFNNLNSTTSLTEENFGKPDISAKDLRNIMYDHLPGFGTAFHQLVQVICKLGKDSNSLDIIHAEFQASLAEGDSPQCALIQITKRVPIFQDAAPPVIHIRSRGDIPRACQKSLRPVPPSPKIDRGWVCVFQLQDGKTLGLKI
UniProt Q05318: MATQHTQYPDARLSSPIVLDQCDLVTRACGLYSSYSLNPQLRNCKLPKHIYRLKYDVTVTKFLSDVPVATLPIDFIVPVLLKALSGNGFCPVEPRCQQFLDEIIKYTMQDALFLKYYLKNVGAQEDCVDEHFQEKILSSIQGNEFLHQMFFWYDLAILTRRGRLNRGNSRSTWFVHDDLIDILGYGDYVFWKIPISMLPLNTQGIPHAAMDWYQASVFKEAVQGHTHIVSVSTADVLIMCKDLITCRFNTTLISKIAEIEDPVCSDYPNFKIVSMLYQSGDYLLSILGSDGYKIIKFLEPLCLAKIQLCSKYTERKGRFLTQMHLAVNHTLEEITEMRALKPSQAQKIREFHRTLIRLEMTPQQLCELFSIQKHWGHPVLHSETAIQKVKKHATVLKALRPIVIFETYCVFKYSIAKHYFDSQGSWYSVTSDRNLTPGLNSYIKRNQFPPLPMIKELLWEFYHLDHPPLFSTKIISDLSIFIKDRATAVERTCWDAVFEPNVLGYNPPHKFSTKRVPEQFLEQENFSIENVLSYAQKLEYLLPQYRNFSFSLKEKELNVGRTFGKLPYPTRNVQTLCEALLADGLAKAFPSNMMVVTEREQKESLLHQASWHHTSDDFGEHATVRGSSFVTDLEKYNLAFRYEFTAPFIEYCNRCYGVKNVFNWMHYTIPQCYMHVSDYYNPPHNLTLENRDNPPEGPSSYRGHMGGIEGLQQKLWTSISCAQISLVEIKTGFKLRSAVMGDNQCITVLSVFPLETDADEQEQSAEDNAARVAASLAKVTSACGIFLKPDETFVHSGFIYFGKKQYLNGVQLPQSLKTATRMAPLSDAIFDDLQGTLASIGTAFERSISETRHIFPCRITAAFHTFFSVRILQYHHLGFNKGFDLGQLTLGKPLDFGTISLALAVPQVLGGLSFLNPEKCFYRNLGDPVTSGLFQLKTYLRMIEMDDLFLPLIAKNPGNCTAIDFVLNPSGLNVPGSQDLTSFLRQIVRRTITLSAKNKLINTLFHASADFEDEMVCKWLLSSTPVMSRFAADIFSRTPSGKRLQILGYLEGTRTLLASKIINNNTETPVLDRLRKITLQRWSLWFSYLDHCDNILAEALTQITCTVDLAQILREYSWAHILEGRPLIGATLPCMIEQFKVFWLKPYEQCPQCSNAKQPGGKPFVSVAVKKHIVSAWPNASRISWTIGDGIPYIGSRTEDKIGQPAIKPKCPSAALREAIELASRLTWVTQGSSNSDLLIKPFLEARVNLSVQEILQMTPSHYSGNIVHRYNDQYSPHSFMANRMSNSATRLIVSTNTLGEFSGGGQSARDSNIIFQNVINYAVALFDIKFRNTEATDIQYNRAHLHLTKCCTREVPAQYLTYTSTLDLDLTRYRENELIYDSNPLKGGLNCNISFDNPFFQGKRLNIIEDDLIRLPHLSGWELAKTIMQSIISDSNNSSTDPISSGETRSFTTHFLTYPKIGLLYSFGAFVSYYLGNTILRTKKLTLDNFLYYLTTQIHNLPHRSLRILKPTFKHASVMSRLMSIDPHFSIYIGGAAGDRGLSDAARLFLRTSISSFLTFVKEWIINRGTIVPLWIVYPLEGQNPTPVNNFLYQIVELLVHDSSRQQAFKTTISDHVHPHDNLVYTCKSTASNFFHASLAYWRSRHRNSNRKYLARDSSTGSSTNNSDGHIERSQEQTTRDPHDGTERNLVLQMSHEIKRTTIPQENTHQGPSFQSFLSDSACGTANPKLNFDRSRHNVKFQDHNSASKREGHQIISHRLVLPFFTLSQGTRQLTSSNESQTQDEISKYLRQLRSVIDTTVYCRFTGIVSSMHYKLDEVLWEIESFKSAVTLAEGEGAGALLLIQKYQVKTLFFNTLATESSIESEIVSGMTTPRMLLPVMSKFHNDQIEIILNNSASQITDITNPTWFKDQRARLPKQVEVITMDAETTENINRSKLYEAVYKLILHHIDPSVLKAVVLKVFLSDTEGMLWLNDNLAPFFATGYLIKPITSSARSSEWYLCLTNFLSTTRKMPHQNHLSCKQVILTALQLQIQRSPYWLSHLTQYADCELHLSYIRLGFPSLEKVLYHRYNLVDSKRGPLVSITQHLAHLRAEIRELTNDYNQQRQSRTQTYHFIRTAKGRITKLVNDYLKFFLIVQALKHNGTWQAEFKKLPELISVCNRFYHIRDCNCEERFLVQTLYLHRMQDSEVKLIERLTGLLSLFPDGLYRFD

Results are given in words; binding and its absence hold for the method and conditions named. In cells and extracts the contact can be indirect. Some entries that bind do so weakly or less than the wild type.

As to “EBOV large polymerase protein (L), wild type (from UniProt Q05318 1-2212) (enzyme)”, the binding result is listed as “binds”.

The values are drawn from article PMC10345124.
